The text below walks through data of the supplement of paper PMC10403144.

This is one part of the list.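 Rule for the calls: active = mitochondrial OCR inhibition above 30% at 1 uM; inactive = 30% or less.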 Most values come without repeats; read them as rough.

The subject of the first assay is Toxoplasma gondii RH tachyzoites. As to the kind of experiment: inhibition of mitochondrial O2 consumption rate (% inhibition (relative to pre-injection OCR and atovaquone/antimycin A control)); higher = stronger ETC inhibition. As to conditions: 1 µM; injection port (sequential injection order): A.
`N#Cc1ccc(-c2cnc(N)c(-c3ccc(C(N)=O)cc3)n2)cc1`: the “inhibition of mitochondrial O2 consumption rate” value (shortened to “inhibition”) was inactive: -6.08. The same measure, in the same setting: next, `COc1ccccc1OCCCCn1c(C2CC2)nc2ccccc21`: inactive: 1.56. The same measure, in the same setting: the same measure for `O=C(Nc1ccc(N2CCNCC2)nc1)c1oc(-c2ccccc2)nc1C(F)(F)F`: inactive: -10.5; for `Cc1cc2nc(NC(=O)C(C)(C)C)nc(Cl)c2n1Cc1ccc(Cl)cc1`: inactive: 14.8. In the case of `COc1ccc(-c2cnc3ccc(N4CCCC4)nn23)cc1OC`, the “inhibition” value was inactive: 0.0852. Same read-out and setting: next, `COC(=O)c1ccc(F)cc1NS(=O)(=O)c1cccc(-c2cnn(Cc3ccccc3)c2)c1`: inactive: 1.67.

For the compound `CCOC(=O)c1cc(-c2csc(Nc3c(C)cc(C)cc3C)n2)on1`, the “inhibition” value was inactive: -5.39. Consider `CNc1snc(C)c1C(=O)NCCOc1ccc(OC)cc1`, for which the “inhibition” value was inactive: -4.19.

With `c1ccc(Oc2ccc(-c3cc(N4CCOCC4)[nH]n3)cc2)cc1`, the “inhibition” value was inactive: -13.3. Same read-out and setting: next, `COc1ccc(CCN2CCC(NCc3cccc(N(C)C)c3)CC2)cc1`: inactive: -27.4; `O=C(NCCc1ccccc1)c1cc(-c2cccnc2)cnc1NCC1CC1`: inactive: 3.41.

The assay is the same for the next values; noted with them: 1 µM; injection port (sequential injection order): B.
On to `c1ccc(-c2nc(NC3CCCCC3)cc(C3CC3)n2)nc1`, for which the “inhibition” value is inactive: 25.1. Same read-out and setting: the same measure for `CN1CCCC1CCO[C@](C)(c1ccccc1)c1ccc(Cl)cc1` (stereo partly drawn): inactive: -7.41; for `FC(F)(F)c1nnc2ccc(Cl)nn12`: inactive: -7.5; for `c1ccc(-c2[nH]c3ccccc3c2C(c2ccccn2)N2CCCC2)cc1` (stereo not drawn): inactive: -3.2. On the same count and under the same terms, next, `CNC(=O)c1cc(S(=O)(=O)N2CCN(c3ccccn3)CC2)cs1`: inactive: -5.97. The same measure, in the same setting: next, `CNC1C(OC2C(OC3C(O)C(O)C(NC(=N)N)C(O)C3NC(=N)N)OC(C)C2(O)C=O)OC(CO)C(O)C1O` (stereo not drawn): inactive: -4.8; `c1ccc(Oc2ccc(-c3cc(CN4CCOCC4)[nH]n3)cc2)cc1`: inactive: -10.5; `Cn1ncc2c(N3CCOCC3)nc(NCCc3c[nH]c4ccccc34)nc21`: inactive: 3.18. In the case of `Cc1ccc(-c2cc(C(=O)Nc3cccnc3)c3cc(Br)ccc3n2)cc1`, the “inhibition” value was inactive: -27.2. Still for that read-out and setting: next, `Cc1[nH]c2ccccc2c1C(c1cccs1)N1CCN(C)CC1` (stereo not drawn): inactive: -13.3. Same read-out and setting: the same measure for `CCC(NC(=O)c1ccccc1NC(=O)c1ccc(C)cc1)C(=O)OC` (stereo not drawn): inactive: 1.47; for `FC(F)(F)c1ccc(N(c2cccnc2)C2CCN(c3ccc(C(F)(F)F)cn3)CC2)cc1`: inactive: -12; for `Cc1cc(Nc2ccncc2)n2nc(C)c(-c3ccccc3Cl)c2n1`: inactive: -5.44. Same read-out and setting: the same measure for `COc1cccc(NC(=O)c2c(NC(=O)c3cccnc3)sc3c2CCC3)c1`: inactive: -20.3. On to `COC(=O)Nc1nc2cc(C(=O)c3ccccc3)ccc2[nH]1`, for which the “inhibition” value was inactive: -6.56.

The same assay, now with this note: 1 µM; injection port (sequential injection order): C.
Consider `Cc1nn(C)cc1C(C)Nc1nncc(-c2ccc(C(F)(F)F)cc2)n1` (stereo not drawn), for which the “inhibition” value is inactive: -18.1.

As to `O=C(NCc1cc(Cl)cc(Cl)c1)c1c(C(F)(F)F)nc2ccccn12`, the “inhibition” value was inactive: -17.1. On the same count and under the same terms, next, `Nc1nc2ccc(-c3cncc(Oc4ccc(F)cc4)c3)cc2[nH]1`: inactive: -19.1.

For `COc1ccc(CN2CCOc3ccc(C(C)(O)CN(C)C)cc3C2)cc1C` (stereo not drawn), the “inhibition” value is inactive: 1.56.

As to `COc1ccc2nc(C)cc(OCC(=O)NCc3ccccc3)c2c1`, the “inhibition” value is inactive: -21.7. On the same count and under the same terms, next, `COc1ccc(N(CCc2cccc(C)n2)C(=O)C2CCCCC2)cc1`: inactive: -21.4; `CNc1cc(C)nc(C2CN(C(=O)c3n[nH]c4ccccc34)CCO2)c1` (stereo not drawn): inactive: -20; `CCCn1c(NC(=O)c2ccc3ccccc3n2)nc2ccccc21`: inactive: -15.6. Same read-out and setting: the same measure for `Cc1nc(-c2ccccn2)nc(NCCc2ccc(S(C)(=O)=O)cc2)c1Cl`: inactive: -35.3; for `CCc1ccc(C(NCc2nc(N)nc(N(C)C)n2)C(C)C)cc1` (stereo not drawn): inactive: -21; for `Cc1cc(C)c2cc(C(=O)NC3CCCCCCC3)[nH]c2c1`: inactive: -8.22. Still for that read-out and setting: the same measure for `Cc1cc(NCCc2ccccc2)nc(NC(=N)Nc2ccc(Cl)cc2)n1`: inactive: -14.5.
